Test results as given in patent US20070009972A1, “Epidermal growth factor receptor polypeptides and antibodies” (priority 2005, published 2007).
These are yes or no findings as the source states them, for the method shown. Some entries that bind do so weakly or less than the wild type.

T1: Biotin-…-CONH2 (SEQ ID NO:9)
T1 sequence (peptide, N-terminal biotin; C-terminal amide (CONH2); cyclic): GCAHYIDGPHCG

B1: SEQ ID NO 30 (scFv)
scFv: QVQLKQSGPGLVNPSQTLSLTCAISGDSVSSDSAAWNWIRQSPSRGLEWLGRTYYRSKWYNEYTESVKSRIIINPDTSKNQFSLQLNSVTPEDTALYYCARFLRGTFDIWGQGSMVTVSSASTKGPSGILGSGGGGSGGGGSGGGGSNFMLTQPHSVSESPGKTVTISCTGSSGSIATNYVQWYQQRPGSAPTTVIYENNHRPSGVPDRFSGSIDSSSNSASLTISGLKTEDEAGYYCQSSDNDFHAVFGGGTQLTVLSGIQKLISEEDL
B2: SEQ ID NO 23 (scFv)
scFv: QVQLQQSGPGLVKPSQTLSLTCAISGDSVSSNRAAWNWIRQSPSRGLEWLGRTYYRSKWYYDYTLSVQGRITISPDTSRNQVFLQLNYVTPEDTAVYYCARVPQDSSGSRHDAFDFWGQGTMVTVSSGILGSGGGGSGGGGSGGGGSQPVLTQSPSASGTPGQRVTLSCAGSSSDIGSNPVNWYQQLPGTAPKLLMYSNDQRPSGVSDRFSGSKSGTSASLAVSGLQSEDEADYYCAAWDDSLNGWVFGGGTKLTVLSGIQKLISEEDL
B3: SEQ ID NO 26 (scFv)
scFv: EVQLVESGGGLVQPGGSLRLSCAASGFTFSNSAMSWVRQAPGKGLEWVSVIHSGGSTTYYADSVKGRFTISRDNSKNTLYLQMSSLRAEDTAVYYCAKHTSTWWGGEDHYGMDVWGQGTTVTVSSGILGSGGGGSGGGGSGGGGSQSVLTQPASVSGSPGQSVTISCTGTSSDVGSYMFVSWYQQHPGKAPKLMISDVSNRPSGVPDRFSGSKSGNTASLTISGLRAEDEADYYCSSYTSTNTRVFGGGTKLTVLSGIQKLISEEDL

These binders were tested against T1, Biotin-…-CONH2 (SEQ ID NO:9) (assay: yeast surface display screen of naive human library against the peptide (1 round MACS, 3 rounds FACS); clone isolated as specific binder).

binding, binds:
B1
B2
B3
